At least one read-out could not be matched to a standard name with certainty.
Target: T1, GR (Rattus norvegicus, UniProt P06536)
T1 construct: expressed in transfected cells; gift of Keith Yamamoto
T1 sequence (P06536 1-795): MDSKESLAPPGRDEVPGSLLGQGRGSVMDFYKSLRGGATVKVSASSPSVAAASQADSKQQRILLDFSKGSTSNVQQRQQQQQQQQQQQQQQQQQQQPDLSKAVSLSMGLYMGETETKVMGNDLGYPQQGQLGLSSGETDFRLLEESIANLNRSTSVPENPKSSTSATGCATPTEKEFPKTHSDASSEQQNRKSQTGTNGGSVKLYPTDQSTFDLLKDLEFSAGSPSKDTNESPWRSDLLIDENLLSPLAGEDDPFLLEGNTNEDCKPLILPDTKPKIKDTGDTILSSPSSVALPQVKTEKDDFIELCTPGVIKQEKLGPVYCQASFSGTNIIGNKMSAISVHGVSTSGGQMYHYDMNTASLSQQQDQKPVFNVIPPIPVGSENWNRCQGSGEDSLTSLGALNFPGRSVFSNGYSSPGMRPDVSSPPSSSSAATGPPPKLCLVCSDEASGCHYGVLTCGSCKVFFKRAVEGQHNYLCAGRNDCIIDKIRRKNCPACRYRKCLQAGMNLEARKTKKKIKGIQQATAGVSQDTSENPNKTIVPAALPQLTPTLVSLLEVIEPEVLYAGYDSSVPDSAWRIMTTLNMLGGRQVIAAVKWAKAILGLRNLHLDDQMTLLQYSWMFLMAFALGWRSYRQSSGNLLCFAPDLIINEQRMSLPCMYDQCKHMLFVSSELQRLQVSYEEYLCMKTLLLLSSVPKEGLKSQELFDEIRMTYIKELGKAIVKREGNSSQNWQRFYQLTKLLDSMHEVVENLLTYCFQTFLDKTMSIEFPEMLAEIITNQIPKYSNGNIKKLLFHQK
Test: AP-1 repression luciferase assay in U2OS cells stably transfected with rat GR
Format: cell-based
Conditions: Table 5; TPA-stimulated U2OS cells
Procedure: For API repression assays, U2OS cells stably transfected with rat GR were grown in similar media as for CV-1 cells with the exception of the FBS concentration, which was 10% and the only antibiotic was […]. Cells were plated and transfected in a similar fashion, except for plasmids, which in this case were 50 ng/well AP1-Luc and 10 ng/well β-galactosidase. Post-transfection, cells were incubated with either 50 ng/mL TPA (Phorbol 12-myristate 13-acetate), or 50 ng/mL TPA and various hormone dilutions in 10% charcoal treated FBS media. The cells were incubated for 12 h, and the lysis, β-galactosidase assay, and luciferase assay were performed as previously described.

SMILES: CC12Cc3cnn(-c4ccc(F)cc4)c3C=C1CCCC2C(O)c1ccsc1 (stereo not shown) [Compound 238, [1-(4-Fluoro-phenyl)-4a-methyl-4,4a-5,6,7,8-hexahydro-1H-benzo[f]indazol-5-yl]-thiophen-3-yl-methanol]
- Repression AP-1 % max repression: 73%

Reference: patent US7947726B2, “Non-steroidal ligands for the glucocorticoid receptor, and compositions thereof” (The Regents of the University of California, priority 2002, dated 2011)
